# Measurements: PubChem BioAssay AID1671190 (National Center for Advancing Translational Sciences (NCATS), 2021)
# The chains behind the UniProt entries cited, without tags or fusion partners. Where a name states a change or a piece, a line headed by the entry shows the natural chain unless it says otherwise.
# UniProt P18054: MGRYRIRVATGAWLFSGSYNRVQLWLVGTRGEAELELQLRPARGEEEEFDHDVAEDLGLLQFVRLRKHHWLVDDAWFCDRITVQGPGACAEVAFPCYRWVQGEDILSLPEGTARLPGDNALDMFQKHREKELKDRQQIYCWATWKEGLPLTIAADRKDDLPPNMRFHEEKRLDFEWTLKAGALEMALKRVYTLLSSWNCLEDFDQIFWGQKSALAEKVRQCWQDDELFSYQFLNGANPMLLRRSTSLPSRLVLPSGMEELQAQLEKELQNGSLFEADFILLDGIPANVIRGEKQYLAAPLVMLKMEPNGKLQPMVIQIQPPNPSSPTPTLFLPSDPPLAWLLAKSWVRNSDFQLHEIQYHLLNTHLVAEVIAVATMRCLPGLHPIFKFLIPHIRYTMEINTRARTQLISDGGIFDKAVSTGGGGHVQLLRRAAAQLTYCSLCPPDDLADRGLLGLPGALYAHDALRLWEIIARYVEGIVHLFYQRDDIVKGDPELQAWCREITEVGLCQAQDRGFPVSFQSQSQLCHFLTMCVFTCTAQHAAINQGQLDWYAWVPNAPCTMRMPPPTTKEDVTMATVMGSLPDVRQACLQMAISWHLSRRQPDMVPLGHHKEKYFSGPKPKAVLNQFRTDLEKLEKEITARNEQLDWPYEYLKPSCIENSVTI
# The campaign covered roughly 580,000 compounds. About 6,100 (1.1%) were called active. Inconclusive results, whose numbers are uncertain, are shown with a selection of clear calls. The call rests on the fitted dose curve; in most records, active means well fitted inhibition curve with a large enough effect; inconclusive means small, poorly fitted or top-dose-only effect, or another doubt; inactive means no such curve, though single readings can be large or run the other way. Potencies beside an inconclusive call are fits to weak or partial responses and may not hold up.
# Target: Polyunsaturated fatty acid lipoxygenase ALOX12 (Homo sapiens) (UniProt P18054)
# Test: Primary qHTS assay for inhibitors of human arachidonate 12S-lipoxygenase (ALOX12): Round 2
# Settings: purified 12hLO, xylenol orange hydroperoxide absorbance; activity change, negative = inhibition: at 108 µM (top of the series) unless noted
# How it was run: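 Hydroperoxide product was detected by ferrous iron/xylenol orange as the 573 to 405 nm absorbance ratio. Arachidonic acid at 40 uM (final) was turned over for 30 min at room temperature by 150 nM human 12hLO, pH 7.0 Hepes buffer, after 15 min compound preincubation.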
# On the % scale 0 is the no-effect control and ±100 the full control effect; potency means the concentration at half of the fitted maximal effect.
Compound,Potency,"activity change, negative = inhibition"
Cc1ccc(S(=O)(=O)c2nc(-c3cccs3)oc2N2CCC(C(N)=O)CC2)cc1,"inconclusive: 50.1 µM [inhibitor, partial curve, poor fit]",–
CC(C)c1ccc(NC(=O)c2cn(C3CCCCC3)c(=O)c3c2c2ccccc2n3C)cc1,–,inactive: -15%
CCC(C)(Nc1ccccc1)c1nnnn1-c1cccc(C)c1 (stereo unspecified),–,inactive: -44.9%
COC(=O)CCN(C)CCC(=O)OC,–,inactive: -15.1%
CCCCn1nc(C(=O)Nc2ccc(OCC(=O)NCC)cc2)c2ccccc2c1=O,"inconclusive: 79.4 µM [inhibitor, partial curve, poor fit]",–
CCOC(=O)c1ccc(NC(=S)N(CCCN2CCCCCC2)Cc2ccco2)cc1,–,inactive: -9.91%
O=C(N/N=C/c1ccc2c(c1)OCO2)c1ccc2c(c1)OCO2,"inconclusive: 112 µM [inhibitor, single point]",–
CC(=O)Oc1cccc2cc(-c3nc(-c4ccccc4)no3)c(=O)oc12,–,inactive: -15.6%
CCCCn1c(N)c(N(Cc2ccccc2OC)C(=O)c2ccc([N+](=O)[O-])s2)c(=O)[nH]c1=O,"inconclusive: 79.4 µM [inhibitor, partial curve, poor fit]",–
COc1ccc(NC(=O)N/C=C/c2ccc(Cl)cc2)cc1,"inconclusive: 50.1 µM [inhibitor, partial curve, poor fit]",–
CCc1c(C)c2cc(Cl)c(O)c(CN(C)C)c2oc1=O,–,inactive: -22%
CCNc1nc(Oc2c(Cl)cccc2Cl)cc(C(F)(F)F)n1,"inconclusive: 50.1 µM [inhibitor, partial curve, poor fit]",–
CCCCC(CC)C(=O)Nc1ccc(S(=O)(=O)Nc2nccs2)cc1 (stereo unspecified),–,inactive: 11.4%
O=C(NCc1ccccc1Cl)c1cc(=O)[nH]c2ccccc12,"inconclusive: 44.7 µM [inhibitor, partial curve, poor fit]",–
CC(C)c1cc(C(C)C)c(CC(=O)NS(=O)(=O)Oc2c(C(C)C)cccc2C(C)C)c(C(C)C)c1,active: 24.3 µM,–
Cc1ccccc1S(=O)(=O)N1C[C@H]2CON(C)[C@H]2C[C@H]1c1cccc(Br)c1,–,inactive: 12.9%
COc1ccc(-c2nc(C)c(CCNC(=O)c3ccc(F)c(F)c3)s2)cc1,–,inactive: -0.925%
COc1ccc2[nH]c(=O)c(CN(C)C(=O)c3ccccn3)cc2c1,"inconclusive: 35.5 µM [inhibitor, single point]",–
CC1(C)CC(=O)C=C(Nc2cccc(C(F)(F)F)c2)C1,"inconclusive: 126 µM [inhibitor, single point]",–
C=CCOC(=O)C1=C(C)N=C2SC=C(CC(=O)NC3CC3)N2C1c1cccc(OC)c1OC (stereo unspecified),–,inactive: 41.1%
Cc1ccc(-c2nc(Cn3nnc(-c4ccccc4)n3)co2)c(C)c1,–,inactive: 3.84%
O=C(Nc1cccc(Cl)c1F)C1CC(=O)N(C2CCCC2)C1 (stereo unspecified),"inconclusive: 0.316 µM [inhibitor, full curve, poor fit]",–

# Given with bars between the fields: part of the list above
Compound | Potency | activity change, negative = inhibition
Cc1ccc(S(=O)(=O)c2nc(-c3cccs3)oc2N2CCC(C(N)=O)CC2)cc1 | inconclusive: 50.1 µM [inhibitor, partial curve, poor fit] | –
CC(C)c1ccc(NC(=O)c2cn(C3CCCCC3)c(=O)c3c2c2ccccc2n3C)cc1 | – | inactive: -15%
CCC(C)(Nc1ccccc1)c1nnnn1-c1cccc(C)c1 (stereo unspecified) | – | inactive: -44.9%
COC(=O)CCN(C)CCC(=O)OC | – | inactive: -15.1%
CCCCn1nc(C(=O)Nc2ccc(OCC(=O)NCC)cc2)c2ccccc2c1=O | inconclusive: 79.4 µM [inhibitor, partial curve, poor fit] | –
CCOC(=O)c1ccc(NC(=S)N(CCCN2CCCCCC2)Cc2ccco2)cc1 | – | inactive: -9.91%
O=C(N/N=C/c1ccc2c(c1)OCO2)c1ccc2c(c1)OCO2 | inconclusive: 112 µM [inhibitor, single point] | –
CC(=O)Oc1cccc2cc(-c3nc(-c4ccccc4)no3)c(=O)oc12 | – | inactive: -15.6%
CCCCn1c(N)c(N(Cc2ccccc2OC)C(=O)c2ccc([N+](=O)[O-])s2)c(=O)[nH]c1=O | inconclusive: 79.4 µM [inhibitor, partial curve, poor fit] | –
COc1ccc(NC(=O)N/C=C/c2ccc(Cl)cc2)cc1 | inconclusive: 50.1 µM [inhibitor, partial curve, poor fit] | –
CCc1c(C)c2cc(Cl)c(O)c(CN(C)C)c2oc1=O | – | inactive: -22%
CCNc1nc(Oc2c(Cl)cccc2Cl)cc(C(F)(F)F)n1 | inconclusive: 50.1 µM [inhibitor, partial curve, poor fit] | –
CCCCC(CC)C(=O)Nc1ccc(S(=O)(=O)Nc2nccs2)cc1 (stereo unspecified) | – | inactive: 11.4%
O=C(NCc1ccccc1Cl)c1cc(=O)[nH]c2ccccc12 | inconclusive: 44.7 µM [inhibitor, partial curve, poor fit] | –
CC(C)c1cc(C(C)C)c(CC(=O)NS(=O)(=O)Oc2c(C(C)C)cccc2C(C)C)c(C(C)C)c1 | active: 24.3 µM | –
Cc1ccccc1S(=O)(=O)N1C[C@H]2CON(C)[C@H]2C[C@H]1c1cccc(Br)c1 | – | inactive: 12.9%

# Additional records

Compound,Potency,"activity change, negative = inhibition"
CCOC(=O)N1CCN(Cc2nc3cc(NC(=O)CC)ccc3n2C)CC1,"inconclusive: 0.631 µM [inhibitor, full curve, poor fit]",–
CNC(=O)N1CCC(C2CCN(S(=O)(=O)c3cccc(C#N)c3)C2)CC1 (stereo unspecified),"inconclusive: 22.4 µM [inhibitor, single point]",–
CC(C)(C)C1CCC2(CC1)SCC(=O)N2c1ccccc1 (stereo unspecified),–,inactive: -0.0735%
O=C(c1ccccn1)N(Cc1cccs1)C1CC1,"inconclusive: 12.6 µM [inhibitor, full curve, poor fit]",–
Cc1ccc(Cl)cc1N1CCN(Cc2nnnn2Cc2ccco2)CC1,"inconclusive: 39.8 µM [inhibitor, partial curve, poor fit]",–
C/C(=C\C(=O)c1sccc1Cl)N(C)C,"inconclusive: 28.2 µM [inhibitor, partial curve, poor fit]",–
O=C(COC(=O)C1CC1)Nc1ncc(C(F)(F)F)cc1Cl,"inconclusive: 70.8 µM [inhibitor, partial curve, poor fit]",–
NCCN1C(=O)CC[C@H]2CN(C(=O)C3(c4ccccc4)CC3)CC[C@H]21,"inconclusive: 20 µM [inhibitor, partial curve, poor fit]",–
CCOc1ccc(C2C(=O)N(C3CCCCCC3)CC(=O)N2CCC2=CCCCC2)cc1OC (stereo unspecified),–,inconclusive: -54.1% [inhibitor]
CCc1ccc(-n2nc3ccc(NC(=O)c4cc(Cl)c(OC)c(Cl)c4)cc3n2)cc1,"inconclusive: 50.1 µM [inhibitor, partial curve, poor fit]",–
CS(=O)(=O)Nc1cccc(-c2cn3ccccc3n2)c1,"inconclusive: 39.8 µM [inhibitor, single point]",–
Cc1ccc(-c2nccn3cc(C(=O)N4CCN(c5ncccn5)CC4)nc23)cc1,"inconclusive: 11.2 µM [inhibitor, partial curve]",–
Cn1cnc(S(=O)(=O)Nc2ccc(OC(F)F)cc2)c1,"inconclusive: 112 µM [inhibitor, partial curve, poor fit]",–
CC(=O)c1cccc(NC(=O)C2CC(=O)N(c3ccc4c(c3)OCCO4)C2)c1 (stereo unspecified),"inconclusive: 126 µM [inhibitor, single point]",–
CC(C(=O)Nc1ccccc1Cl)n1nc(-c2ccccc2)ccc1=O (stereo unspecified),"inconclusive: 0.398 µM [inhibitor, full curve, poor fit]",–
Cc1ccc(NC(=O)C2CCCN(c3cnc4nccnc4c3)C2)cc1Cl (stereo unspecified),"inconclusive: 79.4 µM [inhibitor, single point]",–
Cc1ccc(C(=O)Nc2cccc(NC(=O)c3ccc(C)cc3)n2)cc1,"inconclusive: 112 µM [inhibitor, partial curve, poor fit]",–
CCNc1ncc2nc(-c3ccc(Cl)cc3)c(=O)n(-c3ccccc3)c2n1,–,inactive: 76.1%
Cc1cccc(/N=C/c2c(O)c3ccccc3oc2=O)n1,–,inactive: 167%
COc1ccc2nc(N/C(N)=N/C(=S)Nc3cccc(C)c3)nc(C)c2c1,"inconclusive: 79.4 µM [inhibitor, partial curve, poor fit]",–
C[C@@H]1CN([C@H](C)CO)C(=O)c2c(c3ccccc3n2C)-c2ccccc2CO[C@H]1CN(C)C(=O)c1cc(Cl)cc(Cl)c1,"inconclusive: 89.1 µM [inhibitor, partial curve, poor fit]",–
Cc1ccccc1C(=O)N1CCN(c2cc(-c3ccccc3)[nH]n2)CC1,–,inactive: 17.6%

Compound,Potency,"activity change, negative = inhibition"
Cc1oc(S(=O)(=O)N2CCCC2)cc1C(=O)Nc1ccccc1,"inconclusive: 0.199 µM [inhibitor, full curve, poor fit]",–
CCc1sc(C(C2C(=O)CC(C)(C)CC2=O)C2C(=O)CC(C)(C)CC2=O)cc1[N+](=O)[O-],"inconclusive: 44.7 µM [inhibitor, partial curve, poor fit]",–
NNc1nc(-c2ccccc2)cs1,"inconclusive: 39.8 µM [inhibitor, partial curve, poor fit]",–
CC1=NS(=O)(=O)N(CCc2ccccc2)C=C1C(=O)O,–,inactive: 8.32%
COc1ccc(Cl)cc1NC(=O)Nc1cccc([N+](=O)[O-])c1C,"inconclusive: 89.1 µM [inhibitor, partial curve, poor fit]",–
COc1ccccc1CN1CCN(C(=O)CCC[C@H]2NC[C@@H]3C[C@H]2CN(Cc2ccccc2)C3)CC1,"inconclusive: 12.6 µM [inhibitor, partial curve]",–
CCOC(=O)c1cc2cc(NC(=O)c3ccc4c(c3)NC(=O)CS4)ccc2s1,–,inactive: 62.1%
CN1CCN(CN2C(=O)C(O)(CC(=O)c3ccccn3)c3ccccc32)CC1 (stereo unspecified),"inconclusive: 50.1 µM [inhibitor, partial curve, poor fit]",–
O=C(CNC(=O)c1ccccc1)OCCOc1cccc(Cl)c1,–,inactive: -18.8%
COC(=O)N/N=C/c1cc(C)n(-c2cccc3ccccc23)c1C,–,inactive: -6.85%
COC(=O)c1ccc2c(c1)N(Cc1ccc(Cl)cc1)C(=O)c1ccccc1S2(=O)=O,"inconclusive: 0.355 µM [inhibitor, full curve, poor fit]",–
COc1ccc(N2CCN(CC(O)COc3ccc(C)cc3C)CC2)cc1 (stereo unspecified),"inconclusive: 44.7 µM [inhibitor, partial curve, poor fit]",–
O=C(c1ccccc1)N1CCn2c(nnc2-c2ccccc2)C1,inactive,–
COc1cc(/C=C/c2ccc3cccc([N+](=O)[O-])c3n2)cc(OC)c1O,"inconclusive: 39.8 µM [inhibitor, partial curve, poor fit]",–
Cc1ccc(CNC(=O)CCS(=O)(=O)c2cc3c(cc2Cl)NC(=O)CO3)cc1,inactive,–
COCCOc1cc(=O)n2c(c1C(=O)NCc1ccccc1OC)CCOCC2,"inconclusive: 8.91 µM [inhibitor, full curve, poor fit]",–
CCOCCCNCc1ccc(OC)c(OC)c1,"inconclusive: 2 µM [inhibitor, full curve, poor fit]",–
Cc1ccc(-c2nc(CN3C(=O)C(=O)N(C(C)C)C3=O)co2)c(C)c1,"inconclusive: 35.5 µM [inhibitor, partial curve, poor fit]",–
COc1ccc(N2CCN(c3ncnc4c3cnn4-c3ccc(C)c(Cl)c3)CC2)cc1,"inconclusive: 126 µM [inhibitor, single point]",–
COc1ccc(C(=O)NCC(C)NC(=O)c2ccc(OC)c(Br)c2)cc1Br (stereo unspecified),"inconclusive: 112 µM [inhibitor, partial curve, poor fit]",–
COCC(=O)N1CCC2(CCCN(c3ncccn3)C2)CC1,"inconclusive: 31.6 µM [inhibitor, single point]",–
COc1ccc(-c2coc3cc(OCC(=O)NCc4cccc(Cl)c4)ccc3c2=O)cc1OC,"inconclusive: 100 µM [inhibitor, single point]",–
